Reference: publication PMC7819943, “Rice protein-binding microarrays: a tool to detect cis-acting elements near promoter regions in rice”
Some of the results follow.

By UniProt entry, the sequences of proteins in these tests, tags left out.
UniProt Q0JBA9, entry or part of it: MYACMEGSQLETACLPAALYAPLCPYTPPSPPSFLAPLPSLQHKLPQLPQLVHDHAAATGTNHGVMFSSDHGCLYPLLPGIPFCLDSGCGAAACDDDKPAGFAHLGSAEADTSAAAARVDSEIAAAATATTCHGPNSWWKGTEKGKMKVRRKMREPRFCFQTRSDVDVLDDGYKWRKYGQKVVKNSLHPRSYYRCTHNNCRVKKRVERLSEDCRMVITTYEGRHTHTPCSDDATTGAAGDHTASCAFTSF

Molecular target: OsWRKY34 (Oryza sativa, UniProt Q0JBA9 1-250)
Experiment: protein-binding microarray (RPBM); PBS, 2% BSA, 51.3 ng/ul salmon testes DNA, 50 uM zinc acetate, 200 nM TF, 25 C, 1 h; high values mean tight binding
Details: protein: recombinant; tags: N-terminal polyhistidine and DsRed monomer fusion (pET32a); label: CyDye5-dUTP incorporated in the synthesized complementary strand; 3' TTTTT single-stranded linker to array surface; dsDNA, one strand shown
In short: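 Transcription factors, each fused N-terminally to a polyhistidine tag and DsRed, were expressed in E. coli BL21-CodonPlus and purified on Ni–NTA. A custom Agilent array was made double-stranded by primer extension with Cy5-dUTP and blocked with 2% BSA. It was incubated with 200 nM protein in PBS, 2% BSA, salmon testes DNA and 50 µM zinc acetate at 25 °C for 1 h, then washed. The binding signal is per-feature fluorescence intensity (arbitrary units) read on an Axon 4000B scanner.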

Sequence | binding signal
CGGTATTTACATAGTATGGGGATCGTTGGTACTAAGATGTCGGAGTCACCTAGTGCAG | 8720 fluorescence intensity (a.u.)
CCAATGCATTTTTCCTTTTACCATTCATTTCGGCGAACCACGGAGTCACCTAGTGCAG | 10600 fluorescence intensity (a.u.)
CGTGGATTCAGACGTTTTTTCCGATTCGCTTTTTTATAAACGGAGTCACCTAGTGCAG | 14200 fluorescence intensity (a.u.)
CTGTACTTCTGTAGTGGTACTACACTACTTACTACCGCTACGGAGTCACCTAGTGCAG | 8280 fluorescence intensity (a.u.)
TTCTCGCCGCTTGACTAAATTTGACTCCACCTGTTTGCTTCGGAGTCACCTAGTGCAG | 10900 fluorescence intensity (a.u.)
ACCCTTCAACTTTTAACACAATGATTGTTTCGCTTATACTCGGAGTCACCTAGTGCAG | 9600 fluorescence intensity (a.u.)
GGGGTTCAATTTCTAGACAAAGTGAGTGGGTATTTGATTTCGGAGTCACCTAGTGCAG | 11500 fluorescence intensity (a.u.)
TTCTTATATGACTCCTTCTATATTTCTAAAAGTGCGGAGCCGGAGTCACCTAGTGCAG | 8310 fluorescence intensity (a.u.)
CTAATAGCTCACCAGTTTGTACTTTTGATCATCTTATCTACGGAGTCACCTAGTGCAG | 9790 fluorescence intensity (a.u.)
TGCTTCTTGCTAGCTTCAGCTCCACCGACACCGATCGTTACGGAGTCACCTAGTGCAG | 8390 fluorescence intensity (a.u.)
TCCGCTTCTCTCTCTCGTCGCTCTCTCCGTCTTTACCGTCCGGAGTCACCTAGTGCAG | 9130 fluorescence intensity (a.u.)
TATTTGCGTTATATTTCCATATAATACTGATTAATCTTATCGGAGTCACCTAGTGCAG | 8280 fluorescence intensity (a.u.)
AGCTGGTTTTGCCAATTTTATTTGCTTGTCATTGGCTCTGCGGAGTCACCTAGTGCAG | 8320 fluorescence intensity (a.u.)
ATGCGCCACTTTGTTTCAAAAGCTTGCATGTAAACACTTTCGGAGTCACCTAGTGCAG | 8230 fluorescence intensity (a.u.)
ACTACATCTTTTGACATTTTTTGCTGTGATTCCTGTGTTACGGAGTCACCTAGTGCAG | 11100 fluorescence intensity (a.u.)
GTTGGATCACTTTATTCCTGTTTTCTCGATCAGCATTCTTCGGAGTCACCTAGTGCAG | 14500 fluorescence intensity (a.u.)
CTGTTTGGTTAGTTCTGTACTTCTGTTGCAGGTTATATCACGGAGTCACCTAGTGCAG | 9080 fluorescence intensity (a.u.)
ACATGCTCTCTTTTGTCACATCCAGGCTCGATTGTTTCCTCGGAGTCACCTAGTGCAG | 11300 fluorescence intensity (a.u.)
GCTAAAATCTTGCTTAATCTTGCCTGTTTCACTAACGATGCGGAGTCACCTAGTGCAG | 8200 fluorescence intensity (a.u.)
TGATGGTTCGGTTTTTTGTGCTTTGTACTTTGCAGTCTTCCGGAGTCACCTAGTGCAG | 14000 fluorescence intensity (a.u.)
CGCCATAAATTCCTTCACTTCAATTTCTTCCTAGCTCAGCCGGAGTCACCTAGTGCAG | 10700 fluorescence intensity (a.u.)

Sequence | binding signal
CTGAATCTGTCAACTCGATCTTCCCTTCTTTCTCTGCAGCCGGAGTCACCTAGTGCAG | 8360 fluorescence intensity (a.u.)
GGTTACGGCTTTCTGGTGTTGGGGTTCGTATTTGGGCCTGCGGAGTCACCTAGTGCAG | 14300 fluorescence intensity (a.u.)
CCATTGGTCCCGCTACATCGCCTTCTACTTCGTCCAACATCGGAGTCACCTAGTGCAG | 10600 fluorescence intensity (a.u.)
TATACGACGCCGTTGACTTTTTAAGATACGTTAGACCATTCGGAGTCACCTAGTGCAG | 20300 fluorescence intensity (a.u.)
CCCTAGCACCTGTTGACAGAAAACCCTAACCCTGCACACCCGGAGTCACCTAGTGCAG | 8480 fluorescence intensity (a.u.)
ACACATAAACTTCTAACTTTTCCGTCACATCGTTCCAATTCGGAGTCACCTAGTGCAG | 8380 fluorescence intensity (a.u.)
CTACTTGTCATCGATCATCATGTTACTGTCGTGGTTTGTCCGGAGTCACCTAGTGCAG | 8560 fluorescence intensity (a.u.)
TGGCACCAGCCACCAGCACAGTTTTTTCCACGGCATTCTCCGGAGTCACCTAGTGCAG | 11100 fluorescence intensity (a.u.)
CGTTCTCTGTCTGTCCCGCACTCCCGCCTTTTGCCAAAGCCGGAGTCACCTAGTGCAG | 9610 fluorescence intensity (a.u.)
GTCTGTGATCCACTTAAGCCGCAAACTACACGTAAGATATCGGAGTCACCTAGTGCAG | 10500 fluorescence intensity (a.u.)
GTACTGCACTTGGGTTATAACTTCTCGACCTTCAACACTTCGGAGTCACCTAGTGCAG | 12200 fluorescence intensity (a.u.)
ATATATATATATATATATATATATAAAGCAGAAAGAAATACGGAGTCACCTAGTGCAG | 9000 fluorescence intensity (a.u.)
TCTGACTGCTTCGTCGCTTTTCTATCATTGCTATTTTGGTCGGAGTCACCTAGTGCAG | 9140 fluorescence intensity (a.u.)
TCCATCTGGCGAGCAGAGCAGCGGAGGGGAGGGGATCCTGCGGAGTCACCTAGTGCAG | 9400 ± 820 fluorescence intensity (a.u.)
CCTTCTTTTGTGCTTAATCACACTTCAGTTTAGGTTAATACGGAGTCACCTAGTGCAG | 9200 fluorescence intensity (a.u.)
GGGTTGATATATTGATGAATGCTCATATTCCCGATTGATACGGAGTCACCTAGTGCAG | 10900 fluorescence intensity (a.u.)
TCTTTTGTAGTAAGCTTTCCATTCATATTTTAATTCGTCTCGGAGTCACCTAGTGCAG | 8570 fluorescence intensity (a.u.)
GCAAAGCAAAGCACCAGGGCAGGGGAGGGGCAGGGAGTTTCGGAGTCACCTAGTGCAG | 10400 fluorescence intensity (a.u.)
ATGTCAATCTAATGTCACTAACCCACCCGCCATTGATCTCCGGAGTCACCTAGTGCAG | 9710 fluorescence intensity (a.u.)
CTGCTTGAATCCTTCTCGCTGAGCTGGCCTGCAGCCTTTTCGGAGTCACCTAGTGCAG | 9350 fluorescence intensity (a.u.)
GCACGCACTCCCCACCTCGCAACCTCGCCTCGGCTCTGCCCGGAGTCACCTAGTGCAG | 11500 fluorescence intensity (a.u.)

Shown with each value named: part of the list above
CCATTGGTCCCGCTACATCGCCTTCTACTTCGTCCAACATCGGAGTCACCTAGTGCAG
  binding signal: 10600 fluorescence intensity (a.u.)
ACACATAAACTTCTAACTTTTCCGTCACATCGTTCCAATTCGGAGTCACCTAGTGCAG
  binding signal: 8380 fluorescence intensity (a.u.)
TCCATCTGGCGAGCAGAGCAGCGGAGGGGAGGGGATCCTGCGGAGTCACCTAGTGCAG
  binding signal: 9400 ± 820 fluorescence intensity (a.u.)
CCTTCTTTTGTGCTTAATCACACTTCAGTTTAGGTTAATACGGAGTCACCTAGTGCAG
  binding signal: 9200 fluorescence intensity (a.u.)

3 records picked at random from the list so far:
Sequence | binding signal
CGGTATTTACATAGTATGGGGATCGTTGGTACTAAGATGTCGGAGTCACCTAGTGCAG | 8720 fluorescence intensity (a.u.)
ATGTCAATCTAATGTCACTAACCCACCCGCCATTGATCTCCGGAGTCACCTAGTGCAG | 9710 fluorescence intensity (a.u.)
CCTTCTTTTGTGCTTAATCACACTTCAGTTTAGGTTAATACGGAGTCACCTAGTGCAG | 9200 fluorescence intensity (a.u.)

Additional results follow:

Sequence | binding signal
TTTTTACCTAGCTACTTCCTTAATATCCATGCCCACCTAACGGAGTCACCTAGTGCAG | 11700 fluorescence intensity (a.u.)
ACTGCTGACGGATTTCAGATCACTACTCCTACGCCTTACACGGAGTCACCTAGTGCAG | 9150 fluorescence intensity (a.u.)
CCGCGCCGTGTGCGCTGCATCTATCCATCGGTCGGCTCGACGGAGTCACCTAGTGCAG | 14100 fluorescence intensity (a.u.)
TATTGATCTTGCTTCTTGGCCCCTTTACGTCACACGTTGACGGAGTCACCTAGTGCAG | 12000 fluorescence intensity (a.u.)
GCCAGGGATGGTAATTGGAAGTGAATTTTTCCTTTATTTACGGAGTCACCTAGTGCAG | 8230 fluorescence intensity (a.u.)
GTTCCGAGCACTCATTTTATACTATCACATTTTTTAAATTCGGAGTCACCTAGTGCAG | 10100 fluorescence intensity (a.u.)
AAATTCTGTAGTAGTCCACTTCTGTTCCACCCTTTCCCTGCGGAGTCACCTAGTGCAG | 8520 fluorescence intensity (a.u.)
TTTATCGCTTTTTTGTCCTTGGCAGCCACCACCACCCTGCCGGAGTCACCTAGTGCAG | 8320 fluorescence intensity (a.u.)
GCTGACCCCGCCTGACTGGCTTCCTTCCCCTTCCACACCTCGGAGTCACCTAGTGCAG | 9170 fluorescence intensity (a.u.)
GAGGAGATCGATGGGATGGGCGTGTGCTTTTTTTTCATCTCGGAGTCACCTAGTGCAG | 10200 fluorescence intensity (a.u.)
ATTCCCTTGTTGCTGCTCTAGTAAAAAACATTACAATTATCGGAGTCACCTAGTGCAG | 8620 fluorescence intensity (a.u.)
CGGGGCTTCCTGGGGCTTCAGTGTGCGCCACTTCTCTCGGCGGAGTCACCTAGTGCAG | 8370 fluorescence intensity (a.u.)
GCCGTTTGGGATATTTTGCCGTGGTTGGTCTGGTGGATAACGGAGTCACCTAGTGCAG | 8680 fluorescence intensity (a.u.)
TTTTGTTCTAGGCTCGTCATGTACTAGCTACTTGACCTATCGGAGTCACCTAGTGCAG | 10300 fluorescence intensity (a.u.)
GGATGGGTCGTATTTCTCACACCTTGGCCTGTTAAGTGCACGGAGTCACCTAGTGCAG | 12000 fluorescence intensity (a.u.)
TTGGGTTGGGTCTTGGGTTTGGTGGTTTGAATTTGGTGTGCGGAGTCACCTAGTGCAG | 13100 fluorescence intensity (a.u.)
CGGCGGCGGCGGCGGTATGTGGAGGCGGGGAAGGGGTCTGCGGAGTCACCTAGTGCAG | 13300 fluorescence intensity (a.u.)
ACATCCATCACTGAATTTGACCCGTTAGCACTTTCACCATCGGAGTCACCTAGTGCAG | 11200 fluorescence intensity (a.u.)
ACATCAACGTGTCATACACACACAACTTTTCAGTCACATCCGGAGTCACCTAGTGCAG | 9010 fluorescence intensity (a.u.)
TCACTCATGCAGAGTCACAGCTTGTATAGTTGTAATGCATCGGAGTCACCTAGTGCAG | 9000 fluorescence intensity (a.u.)
TTTTCAGAGTATTGTCTTGCATAATGCATTTGGGTGTTTCCGGAGTCACCTAGTGCAG | 8510 fluorescence intensity (a.u.)

Sequence | binding signal
CGGTTGTTCTTGCATGTTCTTGACGTTTTCTTTTGAGGTACGGAGTCACCTAGTGCAG | 12400 fluorescence intensity (a.u.)
ACTCCTACAGTAGTGACTTGAGTAGCGCTTCTTTTTTCCACGGAGTCACCTAGTGCAG | 9440 fluorescence intensity (a.u.)
GGTTGGTGGCGGTGGGCCGGTGGCGGCTCGGTGGCGGAGCCGGAGTCACCTAGTGCAG | 10200 fluorescence intensity (a.u.)
ATTCTTTTCATATCATTTGATTCATTGTTAAATATACTTTCGGAGTCACCTAGTGCAG | 9070 fluorescence intensity (a.u.)
GTGTCTATTGCCGTCCTTGACTCTTGCGTGCTCCTCGGATCGGAGTCACCTAGTGCAG | 9980 fluorescence intensity (a.u.)
CCGCTTGTATTTCTTTCGTTTAACTTCGTTCTCTCCTCTCCGGAGTCACCTAGTGCAG | 12700 fluorescence intensity (a.u.)
AACAACAATTCTCTCTCTTGCTCACATTTCCCTTATCAAACGGAGTCACCTAGTGCAG | 8460 fluorescence intensity (a.u.)
AACCAAACCAAATTGCACTTCCACCGGTTTACTGTACCCGCGGAGTCACCTAGTGCAG | 8320 fluorescence intensity (a.u.)
GTCACCATTCTCCTCTTGCAATTTCACCACCACCGCCACGCGGAGTCACCTAGTGCAG | 8460 fluorescence intensity (a.u.)
AACCCCACTTGTTACTTCTATTGATTCAATCAACATATTTCGGAGTCACCTAGTGCAG | 9010 fluorescence intensity (a.u.)
TTCCATCTTCTTCCTTTCTTCCCAACACCAACCGCATCATCGGAGTCACCTAGTGCAG | 8560 fluorescence intensity (a.u.)
TTGGGTCATCTCTTCTCTTGTTTGATGTGTTCAACTTGTCCGGAGTCACCTAGTGCAG | 8490 fluorescence intensity (a.u.)
CTTACTCTCTCCGTCTCTAAATATTTGACGCCGTTGACTTCGGAGTCACCTAGTGCAG | 12900 fluorescence intensity (a.u.)
TGGTCCAGTCATTCATCTATGCACGTACATTAACTCCTTCCGGAGTCACCTAGTGCAG | 13200 fluorescence intensity (a.u.)
GTATGATTGATCTTCTACGTCCATTATAATTACCACATTGCGGAGTCACCTAGTGCAG | 8090 fluorescence intensity (a.u.)
CCTCGGATCACCACTGTCTTCGCCCGCGGCGGCGCACGCCCGGAGTCACCTAGTGCAG | 12200 fluorescence intensity (a.u.)
TGCACCTATCATTAATTAATTATACATTTTCCTATATATACGGAGTCACCTAGTGCAG | 9200 fluorescence intensity (a.u.)
GGCGGGGTTAGGATTCCGGCGAGGAGGGGCGGCGGGCTCCCGGAGTCACCTAGTGCAG | 12500 fluorescence intensity (a.u.)
ACCACCGAAAACCGTAGTGACTCTCTCTCTCTCTCTCTCTCGGAGTCACCTAGTGCAG | 8590 fluorescence intensity (a.u.)
GACGAACGGTCAAACATTTTTAAAAAAGTCAACGGCGTTACGGAGTCACCTAGTGCAG | 15200 fluorescence intensity (a.u.)
ACCAGTGGGCCCCACACACCCTTTCTACTCGCAGCTACTGCGGAGTCACCTAGTGCAG | 9100 fluorescence intensity (a.u.)
